{
  "source": "PubChem BioAssay AID624297",
  "about": "(National Center for Advancing Translational Sciences (NCATS), 2012)",
  "note": "About 6,200 (1.8%) of roughly 340,000 compounds were called active. This list was built around the results that the source calls inconclusive (neither active nor inactive); the mix of calls is not that of the screen. The call rests on the fitted dose curve; in most records, active means well fitted activation curve with a large enough effect; inconclusive means small, poorly fitted or top-dose-only effect; inactive means no such curve, though single readings can be large or run the other way. Potencies of inconclusive entries are doubtful fits and often do not repeat. Potency means the concentration at half of the fitted maximal effect.",
  "data": [
    {"assay": "A quantitative high throughput screen for small molecules that induce DNA re-replication in SW480 colon adenocarcinoma cells; further: nearly all actives have a fitted effect of over 55% in size; on re-replication activation: % of control where 0% means no effect.", "conditions": "Hoechst DNA content imaging, 48 h; re-replication activation: at 46.1 µM (top of the series) unless noted", "procedure,_shortened": "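Readout is total intensity of Hoechst-stained nuclei, excited at 405 nm and collected at 500-530 nm. Compound treatment lasted 48 hr at 37 C in 5% CO2 before staining.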", "values": [
      {"molecule": "O=C(NNc1nc(-c2ccc(F)cc2)cs1)c1ccccc1", "Potency": "inconclusive: 4.11 µM [activator, single point]"},
      {"molecule": "CCC(C(=O)Nc1cc(C)nn1-c1nc(C)cc(C)n1)c1ccccc1", "note": "(stereo unspecified)", "Potency": "inconclusive: 20.6 µM [activator, partial curve, poor fit]"},
      {"molecule": "Cc1sc2nc(Cc3ccccc3)[nH]c(=O)c2c1-c1ccccc1", "re-replication activation": "inactive: -3.64%"},
      {"molecule": "C[C@H]1C(c2ccc(F)cc2)=NN(c2ccccc2)[C@@H]1CO", "Potency": "active: 5.17 µM"},
      {"molecule": "CCN(C(=O)c1ccc(C(C)(C)C)cc1)c1nnc(Cn2nnc3ccccc32)s1", "Potency": "inconclusive: 20.6 µM [activator, single point]"},
      {"molecule": "CC(C)N(C(=O)CSc1nnc(Cc2csc(Nc3ccccc3)n2)o1)C(C)C", "Potency": "inconclusive: 5.8 µM [activator, full curve, poor fit]"},
      {"molecule": "O=C(C1CCN(S(=O)(=O)c2ccc(Cl)cc2)CC1)N1CCN(c2ccccn2)CC1", "re-replication activation": "inactive: -5.12%"},
      {"molecule": "CC(C)=C(NC(=O)c1ccccc1)C(=O)NCCc1nc2ccccc2[nH]1", "Potency": "inconclusive: 18.4 µM [activator, single point]"},
      {"molecule": "Cc1cc(S(=O)(=O)N2CCCOC2CNC(=O)C(=O)NCc2cccs2)ccc1F", "note": "(stereo unspecified)", "Potency": "inconclusive: 16.4 µM [activator, single point]"},
      {"molecule": "O=C1NC(c2ccco2)Nc2sc3c(c21)CCN(Cc1ccccc1)C3", "note": "(stereo unspecified)", "re-replication activation": "inactive: -0.642%"},
      {"molecule": "COc1ccc(OC)c(C2C3CN(C(C)C)CC=C3C(C#N)=C(N)C2(C#N)C#N)c1", "note": "(stereo unspecified)", "re-replication activation": "inactive: 4.46%"},
      {"molecule": "CC(C)(CO)NCc1c(OCc2ccc(Cl)cc2)ccc2ccccc12", "Potency": "inconclusive: 25.9 µM [activator, single point]"},
      {"molecule": "COc1cc2cc(C)c(SCC(=O)N3CCOCC3)nc2cc1OC", "re-replication activation": "inactive: -3.06%"},
      {"molecule": "Cc1nn(-c2ccccc2)c(Cl)c1/C=N/Nc1nc2ccccc2[nH]1", "Potency": "inconclusive: 6.51 µM [activator, single point]"},
      {"molecule": "Cc1ccc2cc(C3C(C#N)=C(N)Oc4c3ccc3cccnc43)c(=O)[nH]c2c1", "note": "(stereo unspecified)", "Potency": "inconclusive: 29.1 µM [activator, single point]"},
      {"molecule": "Cc1nc2ccccc2c(=O)n1/N=C/c1ccc(N(C)C)cc1", "re-replication activation": "inactive: -2.62%"},
      {"molecule": "N#Cc1ccc(CC(C(=O)O)N2Cc3ccccc3C2=O)cc1", "note": "(stereo unspecified)", "Potency": "inconclusive: 18.4 µM [activator, single point]"},
      {"molecule": "COc1ccccc1-c1nnc(SCC(=O)O)n1C", "Potency": "inconclusive: 29.1 µM [activator, single point]"},
      {"molecule": "N#Cc1ccccc1COC(=O)CCC(=O)c1cccs1", "Potency": "inconclusive: 0.103 µM [activator, full curve, poor fit]"},
      {"molecule": "CCOC(=O)/C(C#N)=C/c1cccn1-c1ccc(Cl)cc1", "Potency": "inconclusive: 29.1 µM [activator, single point]"},
      {"molecule": "N#Cc1sc(C(N)=O)c(-c2ccccc2)c1-c1ccccc1", "re-replication activation": "inactive: -5.41%"},
      {"molecule": "CS(=O)(=O)c1ccc(C(=O)OCC(=O)NC23CC4CC(CC(C4)C2)C3)cc1[N+](=O)[O-]", "Potency": "inconclusive: 20.6 µM [activator, single point]"},
      {"molecule": "COC(=O)Cn1c(N2CCCC2)nc2c1c(=O)n(C)c(=O)n2C", "Potency": "inconclusive: 18.4 µM [activator, single point]"},
      {"molecule": "CCOc1cc(CNc2ccc(N3CCCC3)cc2)cc(Cl)c1OC", "Potency": "active: 16.4 µM"},
      {"molecule": "CNC(=O)c1nc(C)n(-c2cc(Cl)ccc2Cl)n1", "Potency": "inconclusive: 6.51 µM [activator, single point]"},
      {"molecule": "COc1ccc(NC(=O)Nc2nccs2)cc1", "Potency": "active: 11.6 µM"},
      {"molecule": "CCc1cc(=S)n2c([nH]c3ccccc32)c1C#N", "Potency": "inconclusive: 18.4 µM [activator, single point]"},
      {"molecule": "Nc1c(C(=O)O)sc2nc(-c3ccccc3)cc(-c3ccc(F)cc3)c12", "Potency": "inconclusive: 6.51 µM [activator, full curve, poor fit]"},
      {"molecule": "Cc1ccccc1N(C(=O)c1snc(C(N)=O)c1N)C(C(=O)NCC1CCCO1)c1ccc(F)cc1", "note": "(stereo unspecified)", "Potency": "inconclusive: 32.6 µM [activator, partial curve, poor fit]"},
      {"molecule": "CCCC1CCC(=NNC(=O)CNc2ccc(OC)cc2)CC1", "note": "(stereo unspecified)", "Potency": "active: 14.6 µM"},
      {"molecule": "CC(=O)NC(NC(C)=O)c1cccc(OCc2ccccc2)c1", "re-replication activation": "inactive: -2.41%"},
      {"molecule": "Cc1ccc(N2C(=O)CN(Cc3cccs3)C2=S)cc1C", "re-replication activation": "inactive: 6.18%"},
      {"molecule": "CCn1c(=O)c([N+](=O)[O-])c(NCc2ccco2)c2ccccc21", "Potency": "inconclusive: 1.16 µM [activator, partial curve, poor fit]"},
      {"molecule": "Cc1cc(NC(=O)CSc2nc3c(cc2C#N)CCC3)no1", "Potency": "active: 14.6 µM"},
      {"molecule": "COc1ccc(C(NC(=O)C(C)C)c2c(O)ccc3ccccc23)cc1", "note": "(stereo unspecified)", "Potency": "inconclusive: 29.1 µM [activator, single point]"},
      {"molecule": "CSc1nc2cc(C)nn2c(-c2ccc(C(C)(C)C)cc2)c1C#N", "Potency": "inconclusive: 16.4 µM [activator, partial curve, poor fit]"},
      {"molecule": "Cc1cccc(C)c1OCC(=O)Nc1ccccc1C(=O)N1CCOCC1", "Potency": "inconclusive: 25.9 µM [activator, single point]"},
      {"molecule": "Cc1cc(=O)oc2cc(OCC(=O)NCC3CCC(C(=O)O)CC3)ccc12", "note": "(stereo unspecified)", "Potency": "inconclusive: 2.31 µM [activator, full curve, poor fit]"},
      {"molecule": "O=P(OCC1CCCO1)(OCC1CCCO1)OCC1CCCO1", "note": "(stereo unspecified)", "re-replication activation": "inactive: 1.72%"},
      {"molecule": "CCc1nnc(NC(=O)c2sc3nc4c(cc3c2N)CCCCCC4)s1", "Potency": "inconclusive: 20.6 µM [activator, single point]"},
      {"molecule": "Nn1c(SCc2cccc(Br)c2)nnc1-c1ccncc1", "Potency": "inconclusive: 8.2 µM [activator, partial curve, poor fit]"},
      {"molecule": "COc1ccc(CNC(=O)C2CCCN(S(=O)(=O)c3ccc(F)cc3)C2)cc1", "note": "(stereo unspecified)", "re-replication activation": "inactive: 9.9%"},
      {"molecule": "Cc1ccccc1OCC(O)COc1ccccc1C", "re-replication activation": "inactive: 15.2%"},
      {"molecule": "CC(C)C(=O)N1CCC2(CC1)Oc1ccc(F)cc1C(=O)C21CC(c2ccccc2)=NO1", "note": "(stereo unspecified)", "Potency": "inconclusive: 18.4 µM [activator, partial curve, poor fit]"},
      {"molecule": "COc1ccc(CCNC(=O)C2CCCN(Cc3nc(-c4ccccc4C)oc3C)C2)cc1OC", "note": "(stereo unspecified)", "re-replication activation": "inactive: 6.6%"},
      {"molecule": "O=C(O)/C=C\\c1cccc(-n2nnnc2SCc2ccccc2F)c1", "Potency": "inconclusive: 0.517 µM [activator, full curve, poor fit]"}
    ]}
  ]
}
